A word on the AC50: it is the midpoint of the concentration-response curve, whichever way the signal moves. High values mean weaker potency, low ones greater potency.

The nature of the experiment: qHTS Assay for Lipid Storage Modulators in Drosophila S3 Cells.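 For cell number change: cells counted by Cell Tracker Red CMTPX staining in the red channel.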 As to conditions: BODIPY lipid droplet fluorescence, 18-24 h; for cell number change: measured here: cell count max response, cells fed with added oleic acid. The procedure, abridged: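 Drosophila S3 cells got compounds at several concentrations plus oleic acid (400 uM solution). Laser-scanning cytometry with 488 nm excitation read lipid droplets at 500-530 nm and cells at 575-640 nm. Percent activity was relative to 20 uM Triacsin C.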

Where [1] appears, read: measured here: lipid fluorescence (Fed channel) AC50, cells fed with added oleic acid.
[2] abbreviates: measured here: cell number channel AC50, cells fed with added oleic acid.

Each structure is given as a SMILES string. The list shows a part of the results. Shown are side measurements of this screen, not its main read-out; they come without a call. Most of these compounds were active or inconclusive in the main read-out, so they are no random draw. The note in brackets gives the kind of curve behind each potency; many fits are weak.

Take `COc1ccccc1CNC(=O)CN(c1ccc(C)cc1)S(=O)(=O)c1c(C)nn(C)c1C`: the cell number change was -0.285%. Further, the AC50 under setting [1] is 2.06 µM [rising, full curve, poor fit].
In the case of `CC1CCCCC1NC(=O)/C(C#N)=C/C=C/c1ccccc1[N+](=O)[O-]` (centres undefined), the cell number change was -30.4%.
Regarding `COC(=O)c1ccc(OCC(O)CN2C(=O)NC(C)(C)C2=O)cc1` (centres undefined), the cell number change turned out to be 9.73%. For the same compound, under setting [1], the AC50 was 1.3 µM [falling, partial curve].
As for `O=C(NCCOc1ccccc1)c1ccc2n[nH]nc2c1`, the cell number change was determined as 19%. Besides, the AC50 under setting [1] was 2.91 µM [rising, single point].
For the compound `S=C(Nc1ccccc1)N1CCC(C2CCN(C(=S)Nc3ccccc3)CC2)CC1`, the AC50 under setting [1] is 4.11 µM [rising, partial curve, poor fit].
`O=C(/C=C/c1ccc([N+](=O)[O-])cc1)NCc1cccnc1`: the cell number change is -18.8%.
Take `Cc1ccc(C(=O)Nc2nc(=O)n(C(=O)c3ccccc3C)s2)cc1`: the cell number change is -81%. The AC50 under setting [2] was 16.4 µM [falling, partial curve, poor fit].
As to `c1ccc(NNC2=NCCCCC2)cc1`, the cell number change came to 11.7%. In addition, the AC50 under setting [2] is 0.0164 µM [rising, full curve, poor fit]. Besides, the AC50 under setting [1] was 6.51 µM [rising, single point].
On to `O=c1c(-c2ccc(Br)cc2)coc2c(CN3CCOCC3)c(O)ccc12`, for which the AC50 under setting [1] was 2.59 µM [rising, single point].
As for `CC(C)c1ccc(NC(=O)C2C3C=CC4(CN(Cc5cccnc5)C(=O)C24)O3)cc1` (centres undefined), the cell number change was -12.6%. Moreover, under setting [2], the AC50 was 4.61 µM [falling, single point]. The AC50 under setting [1] was 0.116 µM [falling, full curve, poor fit].
Consider `CC(=O)NC1=NN(C(C)=O)C(C)(c2ccc(Br)cc2)S1` (centres undefined), for which the cell number change is -62.8%. Besides, the AC50 under setting [2] was 5.8 µM [falling, partial curve]. The AC50 under setting [1] is 18.4 µM [falling, partial curve].
For the compound `CCCc1cc(=O)[nH]c(SCC(=O)N(CC)C2CCS(=O)(=O)C2)n1` (centres undefined), the cell number change is -14.6%. Under setting [1], the AC50 is 29.1 µM [falling, single point].
As for `CC(C)Cn1c(-c2ccc(Cl)cc2)cnc1SCC(=O)N1CCOCC1`, the cell number change was -14.2%. Besides, the AC50 under setting [2] was 2.06 µM [falling, partial curve, poor fit]. For the same compound, the AC50 under setting [1] is 2.06 µM [falling, partial curve, poor fit].
For the compound `Cc1ccc2[nH]c(=O)c(CC=C(Cl)Cl)c(C)c2c1`, the cell number change was 38.2%. The AC50 under setting [2] is 5.17 µM [rising, partial curve]. Also, the AC50 under setting [1] was 5.8 µM [rising, full curve].
Regarding `COCCOC(=O)C1=C(C)NC(=S)NC1c1cccs1` (centres undefined), the cell number change was 18.9%. Besides, the half-maximal activity concentration (AC50) under setting [1] is 29.1 µM [rising, single point].
In the case of `CN1CCc2cc3c(c4c2C1CC41CCC(=NO)CC1)OCO3` (centres undefined), the cell number change was -7.42%.
As to `Cc1cc([N+](=O)[O-])ccc1-c1ccc(/C=N/NC(=O)c2ccc(Br)o2)o1`, the cell number change turned out to be 102%. Also, the AC50 under setting [2] is 9.2 µM [rising, partial curve]. Further, the AC50 under setting [1] is 16.4 µM [falling, single point].
Consider `COC(=O)c1sc(NC(=O)CSc2nnnn2C)nc1C`, for which the cell number change was 10.8%.
Consider `COc1ccc(N(C(=O)CNC(=O)c2ccco2)C(C(=O)NCC2CCCO2)c2ccccc2)c(OC)c1` (centres undefined), for which the cell number change was -9.21%.
For `Oc1ccccc1CNn1cnnc1`, the cell number change came out at 7.47%. Also, the AC50 under setting [1] was 0.00461 µM [rising, full curve, poor fit].
On to `Cc1ccc(S(=O)(=O)NC(C(=O)N2CCOCCOCCOCCOCC2)c2ccccc2)cc1` (centres undefined), for which the cell number change is -27.3%. The AC50 under setting [2] is 2.06 µM [falling, full curve, poor fit]. Besides, the AC50 under setting [1] is 2.06 µM [falling, full curve].
Regarding `COc1ccc(CCNS(=O)(=O)c2ccc(Cl)cc2)cc1OC`, the half-maximal activity concentration (AC50) under setting [1] is 0.58 µM [falling, single point].
Regarding `CC(C)OC(=O)C1C(=O)CC(C)(O)C(C(=O)OC(C)C)C1c1ccc([N+](=O)[O-])cc1` (centres undefined), the cell number change was 17.5%. Also, the AC50 under setting [1] is 6.51 µM [rising, partial curve, poor fit].
Consider `O=C(Nc1ccc2c(c1)OCO2)C1CC(c2ccc(F)cc2)=NO1` (centres undefined), for which the cell number change was found to be 5.65%. Moreover, under setting [2], the half-maximal activity concentration (AC50) was 5.17 µM [rising, partial curve]. For the same compound, the AC50 under setting [1] is 0.58 µM [rising, single point].
As to `COc1ccc(C2c3ccc(O)cc3Oc3ncn4nc(-c5ccccn5)nc4c32)cc1` (centres undefined), the cell number change was -55.4%. The AC50 under setting [2] is 25.9 µM [falling, partial curve, poor fit]. Moreover, under setting [1], the concentration at half-maximal activity (AC50) is 16.4 µM [falling, single point].
As to `CCOc1ccc(C(C)NC(=S)NC2CCCCC2)cc1` (centres undefined), the cell number change was -18.1%. Under setting [2], the AC50 was 6.51 µM [falling, single point]. The AC50 under setting [1] was 3.26 µM [falling, single point].
Take `COc1cc(C(=O)NCC(c2ccc(F)cc2)N2CCOCC2)ccc1OCc1ccccc1Cl` (centres undefined): the cell number change came out at 26.5%. Also, the AC50 under setting [2] is 1.84 µM [rising, partial curve]. Moreover, under setting [1], the AC50 was 0.164 µM [rising, full curve].
As to `FC(F)(F)c1cccc(OCCOCCn2cncn2)c1`, the AC50 under setting [1] was 0.58 µM [rising, single point].
As to `CC1(C)CC(=O)C2=C(C1)N(Cc1ccco1)C(=O)C2(O)C(F)(F)F` (centres undefined), the cell number change is -1.43%. For the same compound, the AC50 under setting [1] was 0.0651 µM [falling, full curve, poor fit].
For `CN1CCN(C(=O)CN(C2CCCCC2)S(=O)(=O)c2ccccc2)CC1`, the concentration at half-maximal activity (AC50) under setting [1] was 0.13 µM [falling, full curve, poor fit].
Turning to `CC(=O)c1c(C)n(-c2ccccc2)c2ccc(OCC(O)CN3CCOCC3)cc12` (centres undefined), the cell number change was 23.9%. Also, under setting [1], the AC50 was 8.2 µM [rising, partial curve].
With `CCOC(=O)CSc1nnc(CNC(=O)c2cccc(C)c2)n1C`, the cell number change came to 7.24%. The AC50 under setting [2] was 4.11 µM [falling, single point].
Turning to `CC(=O)c1sc(NC(=O)Cc2c(F)cccc2Cl)nc1C`, the cell number change stood at 9.21%. Under setting [1], the AC50 is 2.51 µM [falling, full curve, poor fit].
With `O=C(NCc1cccnc1)c1ccc([N+](=O)[O-])o1`, the cell number change is -15.7%. In addition, the AC50 under setting [1] is 0.00651 µM [falling, full curve, poor fit].
Regarding `CCOC(=O)CCCCC(=O)NC(CO)C(=O)NC` (centres undefined), the AC50 is, setting by setting: under setting [2], 0.0651 µM [falling, full curve, poor fit]; under setting [1], 0.731 µM [falling, full curve, poor fit].
As for `COc1ccc(CCN2C(=O)C(O)=C(C(C)=O)C2c2ccccc2OC)cc1OC` (centres undefined), the cell number change was -1.94%. For the same compound, the AC50 under setting [2] is 2.59 µM [falling, partial curve, poor fit].
`CCCc1cc(=O)n2[nH]c(NCc3ccccc3Cl)nc2n1`: the cell number change was -4.46%. Besides, under setting [2], the AC50 is 1.3 µM [rising, partial curve, poor fit].
Regarding `COc1ccc(CNC(=O)C(C)NC(=O)c2cc3ccccc3o2)cc1` (centres undefined), the half-maximal activity concentration (AC50) by setting is: under setting [2], 2.31 µM [rising, partial curve]; under setting [1], 1.84 µM [rising, partial curve].
On to `COc1ccc(C2=NN(C(=O)c3ccco3)C(c3ccco3)C2)cc1OC` (centres undefined), for which the cell number change came to 31.2%. Under setting [1], the AC50 was 6.51 µM [rising, partial curve].
Consider `COC(=O)CCNc1ccc2c(c1)OCCO2`, for which the cell number change amounted to 5.18%.
Same read-out and setting: in the case of `COc1ccc(C(=O)Nc2ccc3c(c2)n(C)c(=O)n3C)cc1OC` it was -29%.
In the case of `Cc1ccc(N2C(=O)c3cccc4c(N)ccc(c34)C2=O)c2cccnc12`, the cell number change was -41.6%. The AC50 under setting [2] is 8.2 µM [falling, partial curve]. Moreover, under setting [1], the AC50 was 11.6 µM [falling, partial curve, poor fit].
As for `O=C(Nc1ccon1)c1ccc2c(c1)OCO2`, under setting [1], the AC50 is 6.51 µM [rising, single point].
Turning to `NC(=O)c1ccccc1NC(=O)N1CCOCC1`, the cell number change came to 13.4%. The AC50 under setting [1] is 29.1 µM [rising, single point].
`COc1ccc(NC(=O)CN2C(=O)NC(c3ccccc3)(c3ccccc3)C2=O)cc1`: the AC50 under setting [1] is 3.66 µM [rising, full curve].
Turning to `O=C(Nc1nnc(-c2ccccc2Cl)o1)c1nc2ccccc2s1`, the cell number change was -61.5%. Also, the AC50 under setting [2] is 16.4 µM [falling, single point].
In the case of `COc1ccc(OC)c(NC(=O)C2CCCN2S(=O)(=O)c2cccc3nsnc23)c1` (centres undefined), the cell number change is -22.1%.
As to `CN(c1ccc(C(=O)N2CCCCCC2)cc1)S(=O)(=O)c1ccc(Cl)cc1`, the cell number change amounted to 6.34%. For the same compound, the AC50 under setting [2] was 0.731 µM [rising, full curve].
As to `Cc1ccc(/C=C/C(=O)NCc2ccc3c(c2)OCO3)o1`, the cell number change was found to be 10%. Further, the AC50 under setting [1] is 1.84 µM [rising, partial curve, poor fit].
For the compound `CC(=O)c1cccc(NC(=O)C(OC(=O)c2ccccc2NS(=O)(=O)c2cccs2)c2ccccc2)c1` (centres undefined), the cell number change is -8.67%.
As to `CC1CCN(CCOc2ccc(C(=O)c3ccccc3)cc2)CC1`, the cell number change stood at 10.1%. Moreover, under setting [1], the AC50 is 0.731 µM [rising, full curve, poor fit].
For the compound `Fc1ccc(-n2cc(-c3ccccc3)c3c(=S)nc[nH]c32)cc1`, the cell number change was determined as 3.58%.
On to `CNC(=S)N/N=C/c1cc(C)n(-c2ccc(Cl)c(Cl)c2)c1C`, for which the cell number change was -13.1%. Besides, the AC50 under setting [1] is 0.092 µM [falling, full curve, poor fit].
`CC(C)(C)c1ccc(C(=O)c2c[nH]c(C(=O)NCc3ccco3)c2)cc1`: the cell number change was -11.7%. Also, under setting [2], the AC50 was 4.11 µM [falling, single point].
Consider `Cc1cccc(NC(=O)c2ccc3c(c2)OCCO3)c1C`, for which the cell number change was -47.4%. In addition, the AC50 under setting [2] is 0.411 µM [falling, full curve, poor fit]. In addition, the AC50 under setting [1] is 5.62 µM [falling, single point].
On to `Cc1ccc(C(C)n2cc(C(=O)NCc3cccnc3)nn2)cc1` (centres undefined), for which the cell number change stood at 83.1%. Moreover, the AC50 under setting [2] was 14.6 µM [rising, partial curve].
On to `Cn1ncc2c(N3CCCCC3)nc(NCCCO)nc21`, for which the cell number change was -5.37%. The AC50 under setting [1] was 29.1 µM [rising, single point].
In the case of `CC(=O)N1CCN(c2nc(N)c(C#N)c(CC#N)c2C#N)CC1`, the cell number change was determined as 21.7%. The AC50 under setting [1] is 0.731 µM [rising, full curve, poor fit].
Take `CCOc1ccc(C(=O)NN2CCOCC2)cc1`: the cell number change was 16.4%. In addition, the AC50 under setting [1] was 29.1 µM [rising, single point].

These data come from PubChem BioAssay AID2685 (National Center for Advancing Translational Sciences (NCATS), 2010).
